According to patent publication US8080377B2, “Method for confirming the exposure on chrysene” (Korea Institute of Science and Technology, priority 2008, dated 2011):
Further values from the same series stand in other lists.

Test system: HepG2 cells
Experiment: 44 k whole human genome oligo microarray gene expression, cells treated with chrysene at IC20 for 48 hours (Cy5) vs untreated control (Cy3)
Format: cell-based
Description: HepG2 cells were distributed on a 100 mm dish at the concentration of 6×10^6 cell/ml, to which chrysene was treated for 48 hours at the concentration that was determined in Example <1-2>. Total RNA was extracted from the cells using trizol reagent (Invitrogen life technologies, USA) according to the manufacturer's instruction and the extracted RNA was purified by using RNeasy mini kit (Qiagen, USA). The genomic DNA was eliminated during the purification of RNA using RNase-free DNase set (Qiagen, USA). The total RNA was quantified by spectrophotometer and purity was measured by Agilent 2100 Bioanalyzer (Agilent Technologies, USA) and agarose gel-electrophoration.
For oligo-microarray analysis, cDNA was synthesized using the total RNA extracted from the experimental group treated with chrysene obtained in Example <2-1>. 30 μg of the total RNA and 2 μg (1 μg/μl) of oligo (dT) primer were mixed, followed by reaction for 10 minutes at 65° C. Then, the reaction mixture was put in ice, followed by annealing. Reagents were mixed as shown in Table 1 for reverse transcription of the RNA.
The total RNA extracted from the control HepG2 cell line was labeled with Cy3-dUTP (green), while the RNA extracted from the experimental HepG2 cell line treated with chrysene was labeled with Cy5-dUTP (red). At this time, the two samples were mixed and purified by Microcon YM-30 column (Millipore, USA).
Hybridization and washing were performed according to the instruction of GeneoCheck Co., Ltd. Hybridization was performed in a 62° C. oven for 12 hours. At this time, 44 k whole human genome oligo microarray (Agilent, USA) was used as a DNA microarray chip. After washing (with 2×SSC/0.1% SDS for 2 minutes, with 1×SSC for 3 minutes, with 0.2×SSC for 2 minutes), the slide was centrifuged at 800 rpm for 3 minutes and dried.
Scanning of the hybridized images on the slide was performed by using Genepix 4000B (Axon Instruments, USA). Fluorescence images of the chip washed to eliminate non-binding genes were obtained by laser fluorescence scanner. At this time, green fluorescent images indicated the activity of the gene expressed in the control, whereas red fluorescent images indicated the activity of the gene expressed specifically in the experimental group. […] The scanned images were analyzed by GenePix 4.1 software (Axon Instruments, USA) to calculate the gene expression rate. Based on the obtained data, marker genes for chrysene were selected (see FIG. 2).

c1ccc2c(c1)ccc1c3ccccc3ccc21 [chrysene] was tested, and the “Ratio of intermediate value” (04-Sep, Septin 4 (NM_004574)) was 4.421, the “Ratio of intermediate value” (6PGL (BC017706)) was 2.621 and the “Ratio of intermediate value” (ABCB6 (BC043423)) was 3.039. The “Ratio of intermediate value” (ACBD3 (AB043587)) was 2.387, the “Ratio of intermediate value” (ADAM19 (Y13786)) was 3.419 and the “Ratio of intermediate value” (ADH1B (AF153821)) was 2.421. The “Ratio of intermediate value” (AKR1B10 (AF524864)) was 5.17, the “Ratio of intermediate value” (AKR1C3 (BQ939577)) was 2.683 and the “Ratio of intermediate value” (AKR1C4 (BC020744)) was 3.074. For the same compound, the “Ratio of intermediate value” (ANXA4 (BX641114)) was 2.143, the “Ratio of intermediate value” (APAF1 (NM_181861)) was 2.324 and the “Ratio of intermediate value” (APLP1 (NM_001024807)) was 14.6. The “Ratio of intermediate value” (APOBEC3B (AK024854)) was 3.958, the “Ratio of intermediate value” (APOBEC3F (NM_145298)) was 4.283 and the “Ratio of intermediate value” (APOL1 (NM_145343)) was 2.065. For the same compound, the “Ratio of intermediate value” (AQP3 (AK095363)) was 8.623, the “Ratio of intermediate value” (ATXN3 (BC095402)) was 2.202 and the “Ratio of intermediate value” (BIRC3 (NM_001165)) was 6.105. The “Ratio of intermediate value” (BMP1 (AB209590)) was 2.018, the “Ratio of intermediate value” (BPGM (NM_199186)) was 2.002 and the “Ratio of intermediate value” (BTG2 (NM_006763)) was 8.033. The “Ratio of intermediate value” (C9orf150 (NM_203403)) was 2.2, the “Ratio of intermediate value” (CABYR (NM_012189)) was 15.75 and the “Ratio of intermediate value” (CAPN2 (AK124751)) was 4.877. For the same compound, the “Ratio of intermediate value” (CARD6 (AF356193)) was 2.315, the “Ratio of intermediate value” (CASP10 (BC042844)) was 2.071 and the “Ratio of intermediate value” (CCIN (AF333334)) was 2.908. The “Ratio of intermediate value” (CCNK (AB209373)) was 2.274, the “Ratio of intermediate value” (CD3E (NM_000733)) was 2.069 and the “Ratio of intermediate value” (CD14 (CR614015)) was 2.62. For the same compound, the “Ratio of intermediate value” (CDC42 (NM_044472)) was 2.087, the “Ratio of intermediate value” (CDKN1A (NM_078467)) was 21.05 and the “Ratio of intermediate value” (CEL (X54457)) was 11.01. The “Ratio of intermediate value” (CGB5 (BX386171)) was 2.117, the “Ratio of intermediate value” (CHRM5 (NM_012125)) was 2.113 and the “Ratio of intermediate value” (CNGB1 (NM_001297)) was 5.653. The “Ratio of intermediate value” (COL7A1 (L02870)) was 4.294, the “Ratio of intermediate value” (COL9A2 (BC041479)) was 3.574 and the “Ratio of intermediate value” (CPA1 (AK124421)) was 3.111. The “Ratio of intermediate value” (CRA (BC094756)) was 2.621, the “Ratio of intermediate value” (CSPG4 (X96753)) was 3.343 and the “Ratio of intermediate value” (CSRP2 (AB209321)) was 2.079. For the same compound, the “Ratio of intermediate value” (CTHRC1 (BC021025)) was 3.023, the “Ratio of intermediate value” (CTSB (NM_147780)) was 6.625 and the “Ratio of intermediate value” (CYGB (CR615530)) was 5.51. For the same compound, the “Ratio of intermediate value” (CYP1A1 (NM_000499)) was 88.34, the “Ratio of intermediate value” (CYP2S1 (NM_030622)) was 2.769 and the “Ratio of intermediate value” (CYP2U1 (BC012027)) was 2.369. The “Ratio of intermediate value” (CYP4F3 (AB002454)) was 2.282, the “Ratio of intermediate value” (CYP4F11 (BC092420)) was 3.048 and the “Ratio of intermediate value” (CYP21A2 (CD013987)) was 3.5. The “Ratio of intermediate value” (CYP26A1 (AK027560)) was 4.292, the “Ratio of intermediate value” (CYR61 (Y11307)) was 8.871 and the “Ratio of intermediate value” (DAO (BC029057)) was 3.658. For the same compound, the “Ratio of intermediate value” (DAZAP1 (AK124583)) was 2.093, the “Ratio of intermediate value” (DCAMKL1 (AF052152)) was 2.947 and the “Ratio of intermediate value” (DCTN6 (NM_006571)) was 2.033. The “Ratio of intermediate value” (DDB2 (BC050455)) was 5.131, the “Ratio of intermediate value” (DGKA (NM_201444)) was 6.832 and the “Ratio of intermediate value” (DHRS3 (NM_004753)) was 2.953. The “Ratio of intermediate value” (DHRS6 (NM_020139)) was 2.017, the “Ratio of intermediate value” (EFNB1 (NM_004429)) was 2.29 and the “Ratio of intermediate value” (EGR2 (BC035625)) was 5.012. The “Ratio of intermediate value” (EI24 (NM_004879)) was 3.84, the “Ratio of intermediate value” (EMP3 (BM556279)) was 2.029 and the “Ratio of intermediate value” (ENO2 (AK124656)) was 2.273. For the same compound, the “Ratio of intermediate value” (ERCC1 (NM_001983)) was 1.811, the “Ratio of intermediate value” (FADS3 (NM_021727)) was 4.914 and the “Ratio of intermediate value” (FAS (AB209361)) was 9.283. The “Ratio of intermediate value” (FDXR (BC034763)) was 9.627, the “Ratio of intermediate value” (FGFR1OP (NM_007045)) was 2.094 and the “Ratio of intermediate value” (FLJ42654 (AB075871)) was 2.279. The “Ratio of intermediate value” (FRK (NM_002031)) was 2.008, the “Ratio of intermediate value” (FXYD2 (BX641053)) was 14.84 and the “Ratio of intermediate value” (GABRE (NM_021990)) was 3.111. The “Ratio of intermediate value” (GADD45A (CR612719)) was 2.785, the “Ratio of intermediate value” (GADD45B (AK129595)) was 2.432 and the “Ratio of intermediate value” (GALGT (NM_001478)) was 2.372. The “Ratio of intermediate value” (GDF15 (NM_004864)) was 6.654, the “Ratio of intermediate value” (GLA (NM_000169)) was 2.641 and the “Ratio of intermediate value” (GM2A (NM_000405)) was 2.078. For the same compound, the “Ratio of intermediate value” (GPD1L (D42047)) was 2.17, the “Ratio of intermediate value” (HDAC2 (F02250)) was 2.559 and the “Ratio of intermediate value” (HIP1 (AY358103)) was 2.101. For the same compound, the “Ratio of intermediate value” (HIST1H1C (NM_005319)) was 4.257, the “Ratio of intermediate value” (HIST1H1D (NM_005320)) was 3.301 and the “Ratio of intermediate value” (HIST1H1E (BU603483)) was 4.639. For the same compound, the “Ratio of intermediate value” (HIST1H2AC (CR608156)) was 1.895, the “Ratio of intermediate value” (HIST1H2BD (BC042589)) was 2.361 and the “Ratio of intermediate value” (HIST1H2BH (BX436525)) was 1.564. For the same compound, the “Ratio of intermediate value” (HIST1H2BI (BC101655)) was 1.863, the “Ratio of intermediate value” (HIST1H2BO (BX647290)) was 1.512 and the “Ratio of intermediate value” (HIST2H2AA (NM_003516)) was 3.052. For the same compound, the “Ratio of intermediate value” (HIST2H2BE (CB529694)) was 2.358, the “Ratio of intermediate value” (HIVEP3 (CR601823)) was 3.291 and the “Ratio of intermediate value” (HSD3B2 (CR627415)) was 3.576. For the same compound, the “Ratio of intermediate value” (HSPB1 (BM557864)) was 5.989, the “Ratio of intermediate value” (IER3 (NM_003897)) was 3.324 and the “Ratio of intermediate value” (IFI16 (AF208043)) was 2.147. For the same compound, the “Ratio of intermediate value” (IGFBP1 (NM_000596)) was 4.426, the “Ratio of intermediate value” (IGFBP2 (AB209509)) was 2.281 and the “Ratio of intermediate value” (IGFBP3 (NM_001013398)) was 11.51. The “Ratio of intermediate value” (IGFBP4 (NM_001552)) was 2.17, the “Ratio of intermediate value” (IGFBP7 (NM_001553)) was 3.467 and the “Ratio of intermediate value” (IHPK3 (BC089389)) was 17.87. For the same compound, the “Ratio of intermediate value” (ISYNA1 (AK093461)) was 8.506, the “Ratio of intermediate value” (JAG1 (AF003837)) was 2.053 and the “Ratio of intermediate value” (KIAA1434 (AL833069)) was 2.042. For the same compound, the “Ratio of intermediate value” (KIAA1466 (AB040899)) was 2.151, the “Ratio of intermediate value” (KIAA1949 (AK126182)) was 2.807 and the “Ratio of intermediate value” (KIF3B (NM_004798)) was 3.215.
